Some of the results follow.
What was measured:
Assay in all cases: NMR binding call after quantification (hit when 2 of 3 NMR criteria are met) (binary (1 = binding, 0 = not binding)); higher = binding
Details in all cases: RNA concentration 10 µM; fragment concentration 200 µM; 293 K
[1] = tested on: SARS-CoV-2 3'-UTR RNA
[2] = tested on: SARS-CoV-2 3_SL1 RNA
[3] = tested on: SARS-CoV-2 3_SL1+2 RNA
[4] = tested on: SARS-CoV-2 3_SL2 RNA
[5] = tested on: SARS-CoV-2 3_SL3base RNA
[6] = tested on: SARS-CoV-2 3_s2m RNA

CCS(=O)(=O)NCc1ccc2c(c1)OCO2
NMR binding call [1]: 0
NMR binding call [2]: 0
NMR binding call [3]: 0
NMR binding call [4]: 0
NMR binding call [5]: 0
NMR binding call [6]: 0

CNC(C)c1cnn(C)c1 (stereo not drawn)
NMR binding call [1]: 0
NMR binding call [2]: 0
NMR binding call [3]: 0
NMR binding call [4]: 0
NMR binding call [5]: 0
NMR binding call [6]: 0

CC1CNCCN1CCO (stereo not drawn)
NMR binding call [1]: 0
NMR binding call [2]: 0
NMR binding call [3]: 0
NMR binding call [4]: 0
NMR binding call [5]: 0
NMR binding call [6]: 0

CC(N)CN1CCOCC1 (stereo not drawn)
NMR binding call [1]: 0
NMR binding call [2]: 0
NMR binding call [3]: 0
NMR binding call [4]: 0
NMR binding call [5]: 0
NMR binding call [6]: 0

Cc1ncsc1C(=O)N1CCNC(=O)C1
NMR binding call [1]: 0
NMR binding call [2]: 0
NMR binding call [3]: 0
NMR binding call [4]: 0
NMR binding call [5]: 0
NMR binding call [6]: 0

CS(=O)(=O)N1CCN(Cc2ccco2)CC1.O=C(O)C(=O)O
NMR binding call [1]: 0
NMR binding call [2]: 0
NMR binding call [3]: 0
NMR binding call [4]: 0
NMR binding call [5]: 0
NMR binding call [6]: 0

CC1(S(=O)(=O)N2CCC=C(F)C2)CC1
NMR binding call [1]: 0
NMR binding call [2]: 0
NMR binding call [3]: 0
NMR binding call [4]: 0
NMR binding call [5]: 0
NMR binding call [6]: 0

Cc1cccc(C(=O)N2CCC(C(N)=O)CC2)c1
NMR binding call [1]: 0
NMR binding call [2]: 0
NMR binding call [3]: 0
NMR binding call [4]: 0
NMR binding call [5]: 0
NMR binding call [6]: 0

COc1ccccc1NC(=O)c1ccc(C)s1
NMR binding call [1]: 0
NMR binding call [2]: 0
NMR binding call [3]: 0
NMR binding call [4]: 0
NMR binding call [5]: 0
NMR binding call [6]: 0

CC(=O)N1CCN(CCCc2ccccc2)CC1
NMR binding call [1]: 0
NMR binding call [2]: 0
NMR binding call [3]: 0
NMR binding call [4]: 0
NMR binding call [5]: 0
NMR binding call [6]: 0

CC(c1ccccc1F)N1CCNCC1.Cl.Cl (stereo not drawn)
NMR binding call [1]: 0
NMR binding call [2]: 0
NMR binding call [3]: 0
NMR binding call [4]: 0
NMR binding call [5]: 0
NMR binding call [6]: 0

CCN(CCO)c1ccc(N)cc1
NMR binding call [1]: 0
NMR binding call [2]: 0
NMR binding call [3]: 0
NMR binding call [4]: 0
NMR binding call [5]: 0
NMR binding call [6]: 0

CN1CCN(C(=O)c2ccc(F)c(F)c2)CC1
NMR binding call [1]: 0
NMR binding call [2]: 0
NMR binding call [3]: 0
NMR binding call [4]: 0
NMR binding call [5]: 0
NMR binding call [6]: 0

COc1ccc(CN)cc1OC
NMR binding call [1]: 0
NMR binding call [2]: 0
NMR binding call [3]: 0
NMR binding call [4]: 0
NMR binding call [5]: 0
NMR binding call [6]: 0

Cc1c(C(=O)NCC2CCC2)cnn1C
NMR binding call [1]: 0
NMR binding call [2]: 0
NMR binding call [3]: 0
NMR binding call [4]: 0
NMR binding call [5]: 0
NMR binding call [6]: 0

CN1CCCC1CO (stereo not drawn)
NMR binding call [1]: 0
NMR binding call [2]: 0
NMR binding call [3]: 0
NMR binding call [4]: 0
NMR binding call [5]: 0
NMR binding call [6]: 0

Oc1ccccc1CN1CCOCC1
NMR binding call [1]: 0
NMR binding call [2]: 0
NMR binding call [3]: 0
NMR binding call [4]: 0
NMR binding call [5]: 0
NMR binding call [6]: 0

CCC(=O)Nc1c(C(N)=O)oc2ccccc12
NMR binding call [1]: 0
NMR binding call [2]: 0
NMR binding call [3]: 0
NMR binding call [4]: 0
NMR binding call [5]: 0
NMR binding call [6]: 0

CC1CCOC1C(=O)Nc1cnns1 (stereo not drawn)
NMR binding call [1]: 0
NMR binding call [2]: 0
NMR binding call [3]: 0
NMR binding call [4]: 0
NMR binding call [5]: 0
NMR binding call [6]: 0

CN(CCc1ccccn1)C(=O)c1ccccc1
NMR binding call [1]: 0
NMR binding call [2]: 0
NMR binding call [3]: 0
NMR binding call [4]: 0
NMR binding call [5]: 0
NMR binding call [6]: 0

CCN(CC)c1cccc(O)c1
NMR binding call [1]: 0
NMR binding call [2]: 0
NMR binding call [3]: 0
NMR binding call [6]: 0

CC(N)c1cn(-c2ccccc2)nn1.Cl (stereo not drawn)
NMR binding call [1]: 0
NMR binding call [2]: 0
NMR binding call [3]: 0
NMR binding call [4]: 0
NMR binding call [6]: 0

CCN1CCN(C(=O)NC2CCCCC2)CC1
NMR binding call [1]: 0
NMR binding call [2]: 0
NMR binding call [3]: 0
NMR binding call [4]: 0
NMR binding call [5]: 0
NMR binding call [6]: 0

COC(=O)c1ccc(NC(=O)C2CCCC2)cc1
NMR binding call [1]: 0
NMR binding call [2]: 0
NMR binding call [3]: 0
NMR binding call [5]: 0
NMR binding call [6]: 0

Cl.O=C(O)CN1CCC(c2ccccc2)CC1
NMR binding call [1]: 0
NMR binding call [2]: 0
NMR binding call [3]: 0
NMR binding call [4]: 0
NMR binding call [5]: 0
NMR binding call [6]: 0

CC(=O)Nc1cc(C(=O)O)ccc1F
NMR binding call [1]: 0
NMR binding call [2]: 0
NMR binding call [3]: 0
NMR binding call [5]: 0
NMR binding call [6]: 0

Cc1ccc(NC(=O)c2ccccc2C)c(O)c1
NMR binding call [1]: 0
NMR binding call [2]: 0
NMR binding call [3]: 0
NMR binding call [4]: 0
NMR binding call [5]: 0
NMR binding call [6]: 0

NC(=O)c1cnc(C(F)(F)F)nc1
NMR binding call [1]: 0
NMR binding call [2]: 0
NMR binding call [3]: 0
NMR binding call [4]: 0
NMR binding call [5]: 0
NMR binding call [6]: 0

COC(=O)Nc1nc2c(C)cccc2s1
NMR binding call [1]: 0
NMR binding call [2]: 1
NMR binding call [3]: 0
NMR binding call [4]: 0
NMR binding call [6]: 0

CNC(=O)c1cnc(C)s1
NMR binding call [1]: 0
NMR binding call [2]: 0
NMR binding call [3]: 0
NMR binding call [4]: 0
NMR binding call [5]: 0
NMR binding call [6]: 0

COC(=O)Nc1nnc(CC2CCCC2)s1
NMR binding call [1]: 0
NMR binding call [2]: 0
NMR binding call [3]: 0
NMR binding call [4]: 0
NMR binding call [5]: 0
NMR binding call [6]: 0

CC(=O)NCc1ncc[nH]1
NMR binding call [1]: 0
NMR binding call [2]: 0
NMR binding call [3]: 0
NMR binding call [4]: 0
NMR binding call [6]: 0

NC(=O)c1ccnc(NC2CC=CC2)c1
NMR binding call [1]: 1
NMR binding call [2]: 0
NMR binding call [3]: 1
NMR binding call [5]: 0
NMR binding call [6]: 0

CN1CCN(C(=O)Nc2ccccc2)CC1
NMR binding call [1]: 0
NMR binding call [2]: 0
NMR binding call [3]: 0
NMR binding call [4]: 0
NMR binding call [5]: 0
NMR binding call [6]: 0

CC(C)Nc1ncccn1
NMR binding call [1]: 0
NMR binding call [2]: 0
NMR binding call [3]: 0
NMR binding call [4]: 0
NMR binding call [5]: 0
NMR binding call [6]: 0

CCCC(=O)Nc1cccnc1Cl
NMR binding call [1]: 0
NMR binding call [2]: 0
NMR binding call [3]: 0
NMR binding call [5]: 0
NMR binding call [6]: 0

CC(=O)Nc1ccc(-c2csc(N)n2)cc1
NMR binding call [1]: 1
NMR binding call [2]: 0
NMR binding call [3]: 0
NMR binding call [4]: 0
NMR binding call [6]: 0

O=C(CN1CCCC1)Nc1cccc(Cl)c1
NMR binding call [1]: 0
NMR binding call [2]: 0
NMR binding call [3]: 0
NMR binding call [4]: 0
NMR binding call [5]: 0
NMR binding call [6]: 0

Cn1nccc1C(=O)NCc1cccs1
NMR binding call [1]: 0
NMR binding call [2]: 0
NMR binding call [3]: 0
NMR binding call [4]: 0
NMR binding call [6]: 0

N#CCN1CCN(c2cccc(Cl)c2)CC1
NMR binding call [1]: 0
NMR binding call [2]: 0
NMR binding call [3]: 0
NMR binding call [4]: 0
NMR binding call [5]: 0
NMR binding call [6]: 0

COc1cccc(C(=O)Nc2ccccc2F)c1
NMR binding call [1]: 0
NMR binding call [2]: 0
NMR binding call [3]: 0
NMR binding call [4]: 0
NMR binding call [5]: 0
NMR binding call [6]: 0

N#Cc1cccc(NC(=O)CCC2CCCC2)c1
NMR binding call [1]: 0
NMR binding call [2]: 0
NMR binding call [3]: 0
NMR binding call [5]: 0
NMR binding call [6]: 0

CC(=O)Nc1cc(C(N)=O)cc(C(N)=O)c1
NMR binding call [1]: 0
NMR binding call [2]: 0
NMR binding call [3]: 0
NMR binding call [4]: 0
NMR binding call [6]: 0

CC1CN(C(=O)c2cnccn2)CCO1 (stereo not drawn)
NMR binding call [1]: 0
NMR binding call [2]: 0
NMR binding call [3]: 0
NMR binding call [4]: 0
NMR binding call [5]: 0
NMR binding call [6]: 0

O=C(NCCc1ccc(O)cc1)c1ccccn1
NMR binding call [1]: 0
NMR binding call [2]: 0
NMR binding call [3]: 0
NMR binding call [4]: 0
NMR binding call [5]: 0
NMR binding call [6]: 0

NC(=O)C1CCCn2ccnc21 (stereo not drawn)
NMR binding call [1]: 0
NMR binding call [2]: 0
NMR binding call [3]: 0
NMR binding call [5]: 0
NMR binding call [6]: 0

CC(C)n1cnc(S(N)(=O)=O)c1
NMR binding call [1]: 0
NMR binding call [2]: 0
NMR binding call [3]: 0
NMR binding call [4]: 0
NMR binding call [5]: 0
NMR binding call [6]: 0

CC1CCN(C(=O)c2cc3ccccc3o2)CC1
NMR binding call [1]: 0
NMR binding call [2]: 0
NMR binding call [3]: 0
NMR binding call [4]: 0
NMR binding call [6]: 0

c1csc(-c2nc(N3CCCCC3)no2)c1
NMR binding call [1]: 0
NMR binding call [2]: 0
NMR binding call [3]: 0
NMR binding call [4]: 0
NMR binding call [6]: 0

COc1ccc(C(=O)NCC(N)=O)cc1
NMR binding call [1]: 0
NMR binding call [2]: 0
NMR binding call [3]: 0
NMR binding call [4]: 0
NMR binding call [6]: 0

NCc1ccccc1OC(F)(F)F
NMR binding call [1]: 0
NMR binding call [2]: 0
NMR binding call [3]: 0
NMR binding call [5]: 0
NMR binding call [6]: 0

O=C(Nc1cccnc1)c1cnn2cccnc12
NMR binding call [1]: 1
NMR binding call [2]: 0
NMR binding call [3]: 0
NMR binding call [4]: 0
NMR binding call [6]: 0

CNC1CCCN(c2cccnn2)C1 (stereo not drawn)
NMR binding call [1]: 0
NMR binding call [2]: 0
NMR binding call [3]: 0
NMR binding call [4]: 0
NMR binding call [6]: 0

CN(C)c1ccc(CNn2cnnc2)cc1
NMR binding call [1]: 0
NMR binding call [2]: 0
NMR binding call [3]: 0
NMR binding call [6]: 0

CCCn1nccc1-c1ccncc1
NMR binding call [1]: 0
NMR binding call [2]: 0
NMR binding call [3]: 0
NMR binding call [4]: 0
NMR binding call [6]: 0

OCc1cn(-c2ccc(Cl)cc2)nn1
NMR binding call [1]: 0
NMR binding call [2]: 0
NMR binding call [3]: 0
NMR binding call [4]: 0
NMR binding call [6]: 0

Cc1cc(CN(C)C(=O)NC2CC2)no1
NMR binding call [1]: 0
NMR binding call [2]: 0
NMR binding call [3]: 0
NMR binding call [4]: 0
NMR binding call [5]: 0
NMR binding call [6]: 0

CCn1cc(CNC(=O)c2cccnc2)cn1
NMR binding call [1]: 0
NMR binding call [2]: 0
NMR binding call [3]: 0
NMR binding call [4]: 0
NMR binding call [6]: 0

CNc1ccccc1S(C)(=O)=O
NMR binding call [1]: 0
NMR binding call [2]: 0
NMR binding call [3]: 0
NMR binding call [5]: 0
NMR binding call [6]: 0

Cc1ccc(-c2nc(N)sc2C)cc1C
NMR binding call [1]: 0
NMR binding call [2]: 0
NMR binding call [3]: 0
NMR binding call [5]: 0
NMR binding call [6]: 0

O=C(Cc1ccccc1)N1CCc2ccccc21
NMR binding call [2]: 0
NMR binding call [3]: 0
NMR binding call [4]: 0
NMR binding call [5]: 0
NMR binding call [6]: 0

O=C1CN(Cc2ccccc2)CC(=O)N1
NMR binding call [1]: 0
NMR binding call [2]: 0
NMR binding call [4]: 0
NMR binding call [5]: 0
NMR binding call [6]: 0
